Reference: PMC12681905
These are yes or no findings as the source states them, for the method shown. In cells and extracts the contact can be indirect.

Target: LONP1 mutant (named LONP1-MUT)
Test: co-IP; MAEC whole-cell lysate, mouse anti-Flag antibody (20 ug/ml) or normal mouse IgG, protein A/G magnetic beads, 4 °C, Western blot

binding: no binding
B1: SOD2 (in MAECs, co-IP) (enzyme, UniProt P04179 25-222)
chain: KHSLPDLPYDYGALEPHINAQIMQLHHSKHHAAYVNNLNVTEEKYQEALAKGDVTAQIALQPALKFNGGGHINHSIFWTNLSPNGGGEPKGELLEAIKRDFGSFDKFKEKLTAASVGVQGSGWGWLGFNKERGHLQIAACPNQDPLQGTTGLIPLLGIDVWEHAYYLQYKNVRPDYLKAIWNVINWENVTERYMACKK
